Several values for one entry are separate records, joined by “and”; a condition that tells them apart may be missing. Equal values may be shown once. Inconclusive results, whose numbers are uncertain, are shown with a selection of clear calls. Potencies beside an inconclusive call are fits to weak or partial responses and may not hold up. Activity calls are given as the source filed them. The call rests on the fitted dose curve; in most records, active means well fitted cell-killing curve with a large enough effect in the repeat runs; inconclusive means weak or mixed curves, or effect the other way; inactive means flat fitted curve, though single readings scatter.
assay: cAMP Responsive Elements (CRE) small molecule agonists, cell-based qHTS assay: qHTS cell viability counter screen (AID 2060914); conditions: CRE-bla HEK293T viability, CellTiter-Glo luminescence, 5 h; series mostly up to 92.4 µM; activity change, negative = cytotoxicity: at the top concentration;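 further: viability read after 3 h of compound exposure; nearly all actives have a fitted effect of over 50% in size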
How it was run: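 CRE-bla HEK 293T cells, plated 18 h at 37 °C, were exposed to compounds for 3 h at 37 °C/5% CO2. Viability was then measured in the same wells by CellTiter-Glo luminescence after 30 min at room temperature.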
On the % scale 0 is the no-effect control and ±100 the full control effect; potency means the concentration at half of the fitted maximal effect.

Row | SMILES | Potency | activity change, negative = cytotoxicity
1 | Cc1ccccc1OCC(=O)O | inconclusive: 13.7 µM [cytotoxic, single point] | 
2 | CCN(CC)C(=O)N(CC)CC | inconclusive: 0.243 µM [cytotoxic, single point] | 
3 | O=[N+]([O-])c1nccn1CO[C@@H](CO)[C@H](O)CO |  | inactive: -0.355% [at 42.5 µM]
4 | CCCCCCCC1CCCC1=O (stereo not given) | inconclusive: 15.4 µM [cytotoxic, single point] | 
5 | CCCCCCCCCCCBr | inconclusive: 4.28 µM [cytotoxic, full curve, poor fit] | 
6 | NNc1nc(-c2ccc([N+](=O)[O-])cc2)cs1 | inconclusive: 24.3 µM [cytotoxic, partial curve, poor fit] | 
7 | CCCC(C)C=O (stereo not given) |  | inactive: 0.0516%
8 | Cc1ccccc1C(OCCN(C)C)c1ccccc1 (stereo not given) | inconclusive: 0.243 µM [cytotoxic, single point] | 
9 | O=C(COc1ccc(Cl)cc1)N1CCN(Cc2ccc3c(c2)OCO3)CC1 | inconclusive: 33.5 µM [cytotoxic, single point] | 
10 | CC1(C)[C@@H](O[C@H]2O[C@H](C(=O)O)[C@@H](O)[C@H](O)[C@H]2O[C@@H]2O[C@H](C(=O)O)[C@@H](O)[C@H](O)[C@H]2O)CC[C@]2(C)[C@H]3C(=O)C=C4[C@@H]5C[C@@](C)(C(=O)O)CC[C@]5(C)CC[C@@]4(C)[C@]3(C)CC[C@@H]12 | inconclusive: 20.3 µM [cytotoxic, partial curve, poor fit] | 
11 | Cc1cccc(N(C)C(=S)Oc2ccc3c(c2)C2CCC3C2)c1 (stereo not given) | inconclusive: 33.5 µM [cytotoxic, single point] | 
12 | O=C1c2ccccc2C(=O)C1c1ccc2cc(S(=O)(=O)O)cc(S(=O)(=O)O)c2n1 |  | inactive: -16.6%
13 | O=C(O)CCc1nc2ccccc2[nH]1 |  | inactive: -8.11% [at 42.5 µM]
14 | Nc1ncnc2c1ncn2[C@@H]1O[C@H](COP(=O)(O)O)[C@@H](O)[C@H]1O | inconclusive: 18.8 µM [cytotoxic, single point] | 
15 | CCCCCOC(C)=O | inconclusive: 6.86 µM [cytotoxic, single point] | 
16 | CCC(=O)O[C@H]1[C@H](O[C@@H]2[C@@H](C)[C@H](O[C@H]3C[C@@](C)(OC)[C@@H](O)[C@H](C)O3)[C@@H](C)C(=O)O[C@H](CC)[C@@](C)(O)[C@H](O)[C@@H](C)C(=O)[C@H](C)C[C@@]2(C)O)O[C@H](C)C[C@@H]1N(C)C | inconclusive: 33.5 µM [cytotoxic, single point] | 
17 | O=C1CCc2ccccc2O1 | inconclusive: 0.245 µM [cytotoxic, single point] | 
18 | O=c1ccc2ccccc2o1 | inconclusive: 62.4 µM [cytotoxic, partial curve] | 
19 | COc1ccc(COC(C)=O)cc1 | inconclusive: 62.2 µM [cytotoxic, single point] | 
20 | Cc1cccc(OCC(O)CNC(C)(C)C)c1C (stereo not given) | inconclusive: 0.119 µM [cytotoxic, full curve, poor fit] | 

Row | SMILES | Potency | activity change, negative = cytotoxicity
21 | Nc1ccc2cc3ccc(N)cc3nc2c1 | inconclusive: 77 µM [rising, single point] | 
22 | NCC(=O)O | inconclusive: 0.58 µM [cytotoxic, single point] | 
23 | CCCCCCCCCCCCCC[P+](CCCC)(CCCC)CCCC | active: 60.8 µM and active: 61.1 µM | 
24 | NC(N)=NC(N)=NCCc1ccccc1 | inconclusive: 0.106 µM [cytotoxic, full curve, poor fit] | 
25 | O=C(O)CN(CC(=O)O)CC(=O)O | inconclusive: 13.8 µM [cytotoxic, single point] | 
26 | Cc1cccc2nccnc12 | inconclusive: 2.43 µM [cytotoxic, single point] | 
27 | CC(C)(C)OC(=O)c1ccccc1C(=O)O | inconclusive: 77 µM [cytotoxic, single point] | 
28 | CC(C)c1nc(CN(C)C(=O)N[C@H](C(=O)N[C@@H](Cc2ccccc2)C[C@H](O)[C@H](Cc2ccccc2)NC(=O)OCc2cncs2)C(C)C)cs1 | inconclusive: 11.9 µM [cytotoxic, single point] | 
29 | OCC(O)CN1CCN(c2ccccc2)CC1 (stereo not given) | inconclusive: 1.19 µM [cytotoxic, single point] | 
30 | Cc1ncc(CO)c(CO)c1O | inconclusive: 7.5 µM [cytotoxic, partial curve, poor fit] | 
31 | O=C(OCC(COC(=O)c1cccnc1)(COC(=O)c1cccnc1)COC(=O)c1cccnc1)c1cccnc1 | inconclusive: 33.5 µM [cytotoxic, single point] | 
32 | CC(C)=CC(C)(C)C |  | inactive: 10.4%
33 | C=C(C)[C@@H]1CC=C(C)CC1 |  | inactive: 14.7%
34 | CS(=O)(=O)OCCCCOS(C)(=O)=O | inactive | 
35 | O=C(Nc1ccccc1)c1ccccc1O |  | inactive: -10.3%
36 | CC(C)(C)CC(C)(C)c1ccc(O)c(-n2nc3ccccc3n2)c1 | inconclusive: 62 µM [cytotoxic, partial curve, poor fit] and active: 9.69 µM and inconclusive: 11.9 µM [cytotoxic, partial curve, poor fit] | 
37 | CC1(C)OC(=O)NC1=O | inconclusive: 23.7 µM [rising, partial curve, poor fit] | 
38 | CC(=O)c1c(C)c([N+](=O)[O-])c(C(C)(C)C)c([N+](=O)[O-])c1C |  | inactive: -11.8%
39 | O=S(=O)(O)CCO |  | inactive: 23.7%
40 | C=C(C)C(=O)OCCNC(C)(C)C |  | inactive: -0.752%
